Source: article PMC10518494
Results are given in words; binding and its absence hold for the method and conditions named. Binding seen in cells or lysates may run through a third protein. These calls come from enrichment with a bait or labelling near it, and not all partners need be listed. Sequences can lack the tags named with a protein.

Target: T1, Flag-Rnd3 (UniProt P61588)
T1 sequence: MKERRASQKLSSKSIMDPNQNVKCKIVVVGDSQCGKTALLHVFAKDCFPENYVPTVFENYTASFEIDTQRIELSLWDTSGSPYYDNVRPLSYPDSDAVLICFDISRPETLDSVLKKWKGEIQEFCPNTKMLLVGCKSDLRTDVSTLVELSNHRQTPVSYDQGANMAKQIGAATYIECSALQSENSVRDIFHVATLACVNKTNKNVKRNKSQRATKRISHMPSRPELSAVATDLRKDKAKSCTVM
Experiment: affinity purification with mass spectrometry; anti-Flag immunoprecipitation from ECs treated with Ad-Flag-Rnd3 under oxLDL challenge; IgG as negative control; gel with silver staining; band below 63 kDa analysed by LC-MS/MS

B1: tumor necrosis factor receptor-associated factor 6 (endogenous, mouse aortic endothelial cells) (protein, UniProt P70196 1-530)
chain: MSLLNCENSCGSSQSSSDCCAAMAASCSAAVKDDSVSGSASTGNLSSSFMEEIQGYDVEFDPPLESKYECPICLMALREAVQTPCGHRFCKACIIKSIRDAGHKCPVDNEILLENQLFPDNFAKREILSLTVKCPNKGCLQKMELRHLEDHQVHCEFALVNCPQCQRPFQKCQVNTHIIEDCPRRQVSCVNCAVSMAYEEKEIHDQSCPLANIICEYCGTILIREQMPNHYDLDCPTAPIPCTFSVFGCHEKMQRNHLARHLQENTQLHMRLLAQAVHNVNLALRPCDAASPSRGCRPEDPNYEETIKQLESRLVRQDHQIRELTAKMETQSMYVGELKRTIRTLEDKVAEMEAQQCNGIYIWKIGNFGMHLKSQEEERPVVIHSPGFYTGRPGYKLCMRLHLQLPTAQRCANYISLFVHTMQGEYDSHLPWPFQGTIRLTILDQSEALIRQNHEEVMDAKPELLAFQRPTIPRNPKGFGYVTFMHLEALRQGTFIKDDTLLVRCEVSTRFDMGGLRKEGFQPRSTDAGV
  binding: binds
